# PubChem BioAssay AID2158 (National Center for Advancing Translational Sciences (NCATS), 2009)
# Chains of the proteins cited; added tags and fusions are not shown. Residues count along the entry.
# UniProt P25779, 123-467 limits assumed: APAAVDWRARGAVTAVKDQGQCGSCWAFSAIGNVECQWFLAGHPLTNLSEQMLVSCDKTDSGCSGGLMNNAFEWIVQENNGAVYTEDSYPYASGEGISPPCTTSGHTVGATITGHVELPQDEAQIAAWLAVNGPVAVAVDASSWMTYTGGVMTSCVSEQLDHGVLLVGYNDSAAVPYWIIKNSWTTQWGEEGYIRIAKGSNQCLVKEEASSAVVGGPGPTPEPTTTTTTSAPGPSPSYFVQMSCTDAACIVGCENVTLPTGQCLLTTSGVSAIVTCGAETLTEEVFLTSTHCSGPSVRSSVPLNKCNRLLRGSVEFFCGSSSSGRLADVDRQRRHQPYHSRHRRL
# Where “and” joins values, the source holds several entries; their conditions need not be identical. Equal entries are not always repeated. Inconclusive results, whose numbers are uncertain, are shown with a selection of clear calls. A potency beside an inconclusive call is a rough fit, not a confirmed value. Calls of active or inactive are those of the source. The call rests on the fitted dose curve; in most records, active means well fitted inhibition curve with a large enough effect; inconclusive means small, poorly fitted or top-dose-only effect; inactive means no such curve, though single readings can be large or run the other way.
# Molecular target: Cruzipain (Trypanosoma cruzi) (UniProt P25779)
# Experiment: Confirmation qHTS Assay for Inhibitors of Cruzain; further: nearly all actives have a fitted effect of over 40% in size;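 on activity change, negative = inhibition: plate controls were uninhibited enzyme control for no effect and buffer wells lacking enzyme for full effect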
# Conditions: purified cruzain, Z-FR-AMC fluorescence, 0.01% Triton
# Description: Cruzain is a cysteine protease from the tropical parasite Trypanosoma cruzi. This assay protocol is a follow-up and confirmation of related AID 1478 (qHTS Assay for Promiscuous and Specific Inhibitors of Cruzain -- with detergent). Cruzain was assayed by the use of fluorogenic coumarin-based substrate Z-FR-AMC: proteolytic cleavage releases AMC, whose fluorescence is measured at 360 nm excitation and 450 nm emission. Purified cruzain was supplied by the labs of Prof. James McKerrow and Brian Shoichet, UC San Francisco. This assay had 0.01% Triton X-100 concentration. See following references for additional details: Jadhav A, et al. J Med Chem. 2010 Jan 14;53(1):37-51. Mott BT, et al. J Med Chem. 2010 Jan 14;53(1):52-60. Assay Provider: Shoichet, Brian; University of California, San Fancisco Screening Center PI: Austin, C.P. Screening Center: NIH Chemical Genomics Center [NCGC]
# Buffer: 100 mM Sodium Acetate, pH 5.5, 5 mM DTT, Triton X-100 concentration: 0.01%. Reagents/Controls: Buffer in columns 3 and 4 as negative control (no enzyme). Substrate solution: 2 uM final concentration of Z-FR-AMC (catalog number I-1160, Bachem) dispensed throughout the plate. Enzyme: 1.5 nM Cruzain final concentration in columns 1, 2, 5-48. Column 1 is neutral (100% activity). Column 2 contained titration of covalent inhibitor K11777, starting concentration 1 mM, then 1:2 dilution in duplicate). Assay Steps: Three uL of enzyme or buffer were dispensed to 1536-well Greiner black solid bottom plates. Compounds and controls (23 nL) were transferred via Kalypsys PinTool. The plates were incubated for 15 min at room temperature, and then 1 uL of substrate solution was added to start the reaction. The plates were immediately transferred to and read 4 times every 30 seconds for 2 min on ViewLux High-throughput CCD imager (Perkin-Elmer) using 360 nm excitation and 450 nm emission fluorescence protocol. The fluorescence intensity difference between the third and the first time points (time lapse of 60 seconds) was used to compute reaction progress.
# Potency means the concentration at half of the fitted maximal effect.
SMILES,"activity change, negative = inhibition",Potency
Cc1ccc(SCCC(=O)OCC(=O)Nc2ncc(Cl)cc2Cl)cc1,inactive: -19.6%,–
N#Cc1nc(Nc2cccc(C(F)(F)F)c2)nc(NC2CCCC2)n1,–,"inconclusive: 35.5 µM [inhibitor, partial curve, poor fit]"
CC(C)(C)OC(=O)Cc1nnc(-c2cc3ccccc3[nH]2)s1,inactive: -10.9%,–
O=C(CNC(=O)C(c1ccccc1)c1ccccc1)OCC(=O)c1cccc2ccccc12,inactive: 17.8%,–
CCS(=O)(=O)c1cccc(C(=O)N2CCN(c3nc4c(C)ccc(Cl)c4s3)CC2)c1,–,"inconclusive: 17.8 µM [inhibitor, partial curve]"
CC(C)(C)OC(=O)Cc1nnc(C(C(=O)OCc2ccccc2)c2ccccc2)o1 (stereo not given),inactive: -12.3%,–
CC(C)C(OC(=O)CNC(=O)c1ccccc1)C(=O)Nc1cc(C(F)(F)F)ccc1Cl (stereo not given),–,"inconclusive: 28.2 µM [inhibitor, partial curve]"
Cc1ccc(C(=O)N/C(=C\c2cccc([N+](=O)[O-])c2)C(=O)OCN2C(=O)c3ccccc3C2=O)cc1,–,"inconclusive: 12.6 µM [inhibitor, partial curve]"
COC(=O)CS(=O)(=O)c1nnc([C@H](Cc2ccccc2)NC(=O)OC(C)(C)C)o1,–,"inconclusive: 35.5 µM [inhibitor, partial curve, poor fit]"
Fc1cc(F)cc(Nc2nc(NC3CCCC3)nc(C3CO3)n2)c1 (stereo not given),–,"inconclusive: 44.7 µM [inhibitor, single point]"
N#Cc1nc(NCC(F)F)c2ncn(-c3cc(F)cc(F)c3)c2n1,–,active: 0.0562 µM
O=C(c1ccco1)N1CCN(c2ncnc3c2[nH]c2ccc(Cl)cc23)CC1,inactive: -37.6%,–
Cc1ccccc1OCC(=O)NCC(=O)OCC(=O)c1ccc(Br)cc1,–,active: 35.5 µM
NS(=O)(=O)c1ccc(N/C=C\C(=O)c2ccc3ccccc3c2)cc1,–,"inconclusive: 63.1 µM [inhibitor, partial curve, poor fit]"
O=C(Cc1nnc(-c2nc3ccccc3[nH]2)o1)Nc1cc(C(F)(F)F)ccc1Cl,inactive: -0.284%,–
O=S1(=O)c2ccccc2N=NN1Cc1ccc(Cl)c(Cl)c1,–,"inconclusive: 39.8 µM [inhibitor, partial curve, poor fit]"
CCOc1nc(C#N)nc(N(c2ccccc2)c2ccccc2)n1,–,"inconclusive: 0.316 µM [inhibitor, full curve]"
Fc1cc(F)cc(Nc2nc(Cl)nc(NC3CCCC3)n2)c1,–,"inconclusive: 20 µM [inhibitor, partial curve, poor fit]"
OCCN(CCO)c1ccc(C(c2ccccc2Cl)c2ccc(N(CCO)CCO)cc2Cl)c(Cl)c1,inactive: -15.5%,–
CCN1CCCC1CNc1ncnc2c1[nH]c1ccc(Cl)cc12 (stereo not given),–,"inconclusive: 17.8 µM [inhibitor, full curve, poor fit]"

SMILES,"activity change, negative = inhibition",Potency
COc1ccc(N=Cc2nc(-c3ccccc3)oc2OC(=O)c2ccccc2)cc1,inactive: -22%,–
O=C1OC(/C=C/c2ccc(Cl)cc2)=NC/1=C/c1ccco1,–,"inconclusive: 3.98 µM [inhibitor, partial curve]"
O=C(Cc1ccccc1)NCC(=O)OCC(=O)c1ccc2ccccc2c1,inactive: -9.73%,–
O=C(Nc1nc(-c2ccc(S(=O)(=O)N3CCCCCC3)cc2)cs1)c1cccs1,inactive: -3.12%,–
CCCCNC(=O)Cn1c(SCc2cccc(Cl)c2)nc2ccncc21,–,"inconclusive: 31.6 µM [inhibitor, partial curve]"
C(/Oc1ccccc1)=C1\Nn2c(nnc2-c2cc(-c3ccccc3)n[nH]2)S1,inactive: -9.74% and inactive: -7.34%,–
COc1ccc(CCNC(=O)COC(=O)Cc2cccc3ccccc23)cc1,–,"inconclusive: 39.8 µM [inhibitor, single point]"
Cc1ccc(O/C=C2/Nn3c(nnc3-c3cc(-c4ccccc4)n[nH]3)S2)cc1,inactive: -1.56%,–
O=C(CNC(=O)c1ccc(C(F)(F)F)cc1)OC(C(=O)Nc1cc(C(F)(F)F)ccc1Cl)c1ccccc1 (stereo not given),–,"inconclusive: 10 µM [inhibitor, full curve]"
O=C1OC(/C=C/c2ccccc2)=NC/1=C/c1ccco1,–,"inconclusive: 14.1 µM [inhibitor, full curve]"
CCc1cc2c(=O)[nH]c(-c3ccncc3)nc2s1,–,"inconclusive: 28.2 µM [inhibitor, partial curve, poor fit]"
CCNc1nc(C#N)nc(NCC)n1,–,"inconclusive: 14.1 µM [inhibitor, partial curve]"
CC(C)(C)NC(=O)COC(=O)CNC(=O)C1CCCCC1,–,"inconclusive: 17.8 µM [inhibitor, partial curve]"
S=C(NC1CCCCC1)N(CCc1nc2ccccc2[nH]1)C1CCCC1,–,active: 0.631 µM
O=C(CCN1C(=O)/C(=C/C=C/c2ccccc2)SC1=S)Nc1nccs1,inactive: 1.52%,–
O=C(CNC(=O)C1CCCCC1)OC(C(=O)c1ccccc1)c1ccccc1 (stereo not given),–,active: 1.26 µM
N#Cc1nc(Nc2ccc3ccccc3c2)nc(NC2CCCC2)n1,–,active: 1.26 µM
CC(=O)c1nnn(-c2nc(C#N)nc(N3CCOCC3)n2)c1C,inactive: 4.76%,–
Nc1nc(Nc2cc(F)cc(F)c2)nc(NC2CCCC2)n1,–,"inconclusive: 17.8 µM [inhibitor, full curve, poor fit]"
O=[N+]([O-])c1cc(S(=O)(=O)Nc2ccccc2)ccc1-n1nnc2ccccc21,–,"inconclusive: 39.8 µM [inhibitor, partial curve, poor fit]"

# Part of the list above, set out differently:
SMILES | activity change, negative = inhibition | Potency
CC(C)(C)NC(=O)COC(=O)CNC(=O)C1CCCCC1 | – | inconclusive: 17.8 µM [inhibitor, partial curve]
S=C(NC1CCCCC1)N(CCc1nc2ccccc2[nH]1)C1CCCC1 | – | active: 0.631 µM
O=C(CCN1C(=O)/C(=C/C=C/c2ccccc2)SC1=S)Nc1nccs1 | inactive: 1.52% | –
